Amino acid sequences for entries named in this document (tags omitted). Residues count along the entry.
UniProt Q8IHZ9: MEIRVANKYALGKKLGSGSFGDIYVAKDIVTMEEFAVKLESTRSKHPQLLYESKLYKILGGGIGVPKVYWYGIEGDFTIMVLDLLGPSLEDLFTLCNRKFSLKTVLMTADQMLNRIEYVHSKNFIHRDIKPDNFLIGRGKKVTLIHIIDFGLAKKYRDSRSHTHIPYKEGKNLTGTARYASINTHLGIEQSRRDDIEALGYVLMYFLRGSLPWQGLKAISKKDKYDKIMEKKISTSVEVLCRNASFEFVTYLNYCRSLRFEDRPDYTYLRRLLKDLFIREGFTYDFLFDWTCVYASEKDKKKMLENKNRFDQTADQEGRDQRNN
UniProt Q8II24: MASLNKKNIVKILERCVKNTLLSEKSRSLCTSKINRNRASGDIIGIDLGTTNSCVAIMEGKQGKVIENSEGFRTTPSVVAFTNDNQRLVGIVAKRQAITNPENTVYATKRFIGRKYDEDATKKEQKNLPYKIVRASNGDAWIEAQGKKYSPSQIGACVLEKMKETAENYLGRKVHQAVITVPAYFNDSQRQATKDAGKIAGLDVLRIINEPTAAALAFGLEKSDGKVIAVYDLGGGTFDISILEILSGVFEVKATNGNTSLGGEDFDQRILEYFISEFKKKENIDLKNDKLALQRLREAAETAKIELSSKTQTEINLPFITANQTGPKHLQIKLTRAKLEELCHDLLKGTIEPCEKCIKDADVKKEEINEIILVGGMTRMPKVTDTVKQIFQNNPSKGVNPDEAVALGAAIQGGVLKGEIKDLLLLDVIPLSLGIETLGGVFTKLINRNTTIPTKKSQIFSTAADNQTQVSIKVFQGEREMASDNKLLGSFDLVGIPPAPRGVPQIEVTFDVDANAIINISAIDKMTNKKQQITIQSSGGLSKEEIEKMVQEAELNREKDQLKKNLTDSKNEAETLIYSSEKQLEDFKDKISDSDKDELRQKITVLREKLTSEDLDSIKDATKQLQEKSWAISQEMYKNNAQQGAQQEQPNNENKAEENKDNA
UniProt Q27743: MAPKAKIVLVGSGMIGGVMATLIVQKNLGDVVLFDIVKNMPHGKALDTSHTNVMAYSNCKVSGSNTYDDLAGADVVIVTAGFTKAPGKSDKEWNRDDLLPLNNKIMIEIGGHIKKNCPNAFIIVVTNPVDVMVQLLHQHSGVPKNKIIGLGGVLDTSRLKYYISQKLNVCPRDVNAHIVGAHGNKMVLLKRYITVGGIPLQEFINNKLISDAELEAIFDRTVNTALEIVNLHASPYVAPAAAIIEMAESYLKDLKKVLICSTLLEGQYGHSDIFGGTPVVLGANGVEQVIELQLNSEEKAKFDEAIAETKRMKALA
UniProt P50250: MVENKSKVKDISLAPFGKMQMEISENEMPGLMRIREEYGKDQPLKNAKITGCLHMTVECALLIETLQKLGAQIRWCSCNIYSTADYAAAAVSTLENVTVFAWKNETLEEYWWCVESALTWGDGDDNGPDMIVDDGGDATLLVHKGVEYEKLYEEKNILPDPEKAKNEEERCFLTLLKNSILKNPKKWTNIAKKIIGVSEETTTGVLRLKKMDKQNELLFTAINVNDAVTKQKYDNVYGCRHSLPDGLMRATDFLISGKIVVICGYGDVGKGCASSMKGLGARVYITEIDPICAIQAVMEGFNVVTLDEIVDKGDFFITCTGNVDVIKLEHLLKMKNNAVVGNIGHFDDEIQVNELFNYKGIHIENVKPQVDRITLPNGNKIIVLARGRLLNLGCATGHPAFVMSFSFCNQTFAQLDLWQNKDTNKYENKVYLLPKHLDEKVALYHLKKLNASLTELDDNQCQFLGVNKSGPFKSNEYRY
UniProt Q8IDJ8: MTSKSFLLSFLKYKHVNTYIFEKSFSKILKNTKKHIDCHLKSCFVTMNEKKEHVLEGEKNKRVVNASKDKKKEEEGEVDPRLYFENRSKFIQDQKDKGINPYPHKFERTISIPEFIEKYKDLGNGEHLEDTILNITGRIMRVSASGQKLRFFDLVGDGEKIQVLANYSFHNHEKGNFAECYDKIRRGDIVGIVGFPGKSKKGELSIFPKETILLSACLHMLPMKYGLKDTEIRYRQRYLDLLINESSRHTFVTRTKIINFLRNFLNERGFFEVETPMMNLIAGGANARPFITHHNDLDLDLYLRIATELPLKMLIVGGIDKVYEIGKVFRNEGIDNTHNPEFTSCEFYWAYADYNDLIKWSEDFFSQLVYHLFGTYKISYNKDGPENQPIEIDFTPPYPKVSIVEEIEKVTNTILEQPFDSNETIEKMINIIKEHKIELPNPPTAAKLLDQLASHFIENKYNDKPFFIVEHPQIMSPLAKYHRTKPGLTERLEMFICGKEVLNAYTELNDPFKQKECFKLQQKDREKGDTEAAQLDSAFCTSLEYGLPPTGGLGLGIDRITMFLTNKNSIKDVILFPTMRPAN
UniProt Q8I3X4: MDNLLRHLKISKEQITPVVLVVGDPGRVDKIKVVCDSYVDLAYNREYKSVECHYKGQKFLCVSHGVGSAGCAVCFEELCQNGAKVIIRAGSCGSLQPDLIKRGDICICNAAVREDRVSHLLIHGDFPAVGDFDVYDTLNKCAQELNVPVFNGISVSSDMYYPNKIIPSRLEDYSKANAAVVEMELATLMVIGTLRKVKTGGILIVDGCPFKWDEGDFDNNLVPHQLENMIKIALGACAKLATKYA
UniProt Q9TY95, residues 23-997: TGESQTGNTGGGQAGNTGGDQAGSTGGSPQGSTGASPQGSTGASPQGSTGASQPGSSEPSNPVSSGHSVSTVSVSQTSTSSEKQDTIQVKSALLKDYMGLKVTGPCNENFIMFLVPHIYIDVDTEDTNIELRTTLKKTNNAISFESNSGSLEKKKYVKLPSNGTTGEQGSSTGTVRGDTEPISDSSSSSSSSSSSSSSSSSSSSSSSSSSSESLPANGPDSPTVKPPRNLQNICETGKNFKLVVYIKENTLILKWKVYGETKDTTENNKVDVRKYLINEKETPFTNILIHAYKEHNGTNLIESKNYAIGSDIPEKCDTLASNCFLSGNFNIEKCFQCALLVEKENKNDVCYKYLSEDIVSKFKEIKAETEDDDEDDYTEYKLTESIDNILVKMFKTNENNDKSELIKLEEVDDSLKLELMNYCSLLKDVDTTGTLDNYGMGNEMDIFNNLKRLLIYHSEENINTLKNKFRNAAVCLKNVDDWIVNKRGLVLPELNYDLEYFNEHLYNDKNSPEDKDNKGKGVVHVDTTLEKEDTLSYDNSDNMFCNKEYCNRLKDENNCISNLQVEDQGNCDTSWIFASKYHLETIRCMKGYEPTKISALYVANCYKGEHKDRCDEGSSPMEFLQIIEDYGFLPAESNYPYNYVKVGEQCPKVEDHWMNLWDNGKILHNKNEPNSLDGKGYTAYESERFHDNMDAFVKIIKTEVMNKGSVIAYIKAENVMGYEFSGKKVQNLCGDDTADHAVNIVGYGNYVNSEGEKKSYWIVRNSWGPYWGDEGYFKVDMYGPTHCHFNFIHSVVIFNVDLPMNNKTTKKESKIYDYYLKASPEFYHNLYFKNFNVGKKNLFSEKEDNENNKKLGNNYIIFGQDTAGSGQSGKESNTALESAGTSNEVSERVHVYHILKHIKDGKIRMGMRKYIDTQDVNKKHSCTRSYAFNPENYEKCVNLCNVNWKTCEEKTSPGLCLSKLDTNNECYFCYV

In article PMC6753162:

Key:
[1] = target: T1, PfPrx1a wild type (P. falciparum) (UniProt Q8IL80); test: affinity purification with mass spectrometry; mixed disulfide fishing: reduced His-tagged Prx (wild type or Cys mutant) coupled to CNBr-activated Sepharose 4B, incubated with about 6 mg P. falciparum 3D7 trophozoite lysate protein, RT, 2 h; washed with 100 mM Tris, 500 mM NaCl, pH 8.0; eluted with 10 mM DTT; proteins found in two or three of three experiments, those on empty beads subtracted; only the target purified
T1 sequence: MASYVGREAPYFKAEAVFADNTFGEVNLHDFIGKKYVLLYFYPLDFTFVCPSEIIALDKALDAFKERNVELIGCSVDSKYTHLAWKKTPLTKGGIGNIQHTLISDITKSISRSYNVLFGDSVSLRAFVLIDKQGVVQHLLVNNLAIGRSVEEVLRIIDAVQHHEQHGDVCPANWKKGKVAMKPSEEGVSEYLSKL

[2] = target: T1, PfPrx1a wild type (P. falciparum); test: affinity purification with mass spectrometry; […], RT, 2 h; […], pH 8.0; […]; only the target purified
[3] = target: T2, PfPrx1m wild type (P. falciparum) (UniProt Q8I5Q6); test: affinity purification with mass spectrometry; mixed disulfide fishing: reduced His-tagged Prx (wild type or Cys mutant) coupled to CNBr-activated Sepharose 4B, incubated with about 6 mg P. falciparum 3D7 trophozoite lysate protein, RT, 2 h; washed with 100 mM Tris, 500 mM NaCl, pH 8.0; eluted with 10 mM DTT; proteins found in two or three of three experiments, those on empty beads subtracted; only the target purified
T2 sequence: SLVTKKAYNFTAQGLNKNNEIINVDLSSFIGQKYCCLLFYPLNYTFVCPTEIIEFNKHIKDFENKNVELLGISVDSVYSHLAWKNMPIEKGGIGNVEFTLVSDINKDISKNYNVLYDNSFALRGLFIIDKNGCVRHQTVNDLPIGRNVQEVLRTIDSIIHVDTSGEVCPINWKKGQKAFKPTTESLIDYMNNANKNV

[4] = target: T1, PfPrx1a wild type (P. falciparum); test: affinity purification with mass spectrom; […], RT, 2 h; […], pH 8.0; […]; only the target purified

Substance	binding [1]	further results
26S protease regulatory subunit 4	binds	–
26S protease regulatory subunit 7	binds	–
26S protease regulatory subunit 8	binds	–
26S protease regulatory subunit 10B	binds	–
26S proteasome AAA-ATPase subunit RPT3	binds	–
26S proteasome regulatory subunit RPN11	binds	–
40S ribosomal protein S3	binds	–
40S ribosomal protein S4	binds	–
40S ribosomal protein S5	binds	–
40S ribosomal protein S7	binds	–
40S ribosomal protein S15A	–	binding [2]: binds
40S ribosomal protein S18	binds	–
40S ribosomal protein S21 (RPS21)	binds	–
40S ribosomal protein S23	binds	–
60S acidic ribosomal protein P1	binds	–
60S ribosomal protein L3 (RPL3)	binds	–
60S ribosomal protein L5	binds	–
60S ribosomal protein L6-2	binds	–
60S ribosomal protein L14	binds	–
60S ribosomal protein L17	binds	–

Substance	binding [1]	further results
60S ribosomal protein L35ae	binds	–
60S ribosomal protein P0 (PfP0)	binds	–
Acyl-CoA synthetase (ACS10) (enzyme)	–	binding [3]: binds
Carbamoyl phosphate synthetase (cpsSII) (enzyme)	binds	–
Casein kinase 1 (CK1) (from UniProt Q8IHZ9 1-324) (enzyme)	binds	–
Casein kinase 2, alpha subunit (enzyme)	binds	–
Diacylglycerol kinase (enzyme)	–	binding [3]: binds
Heat shock protein 70 (HSP70-3) (from UniProt Q8II24 1-663)	–	binding [4]: binds
Inosine-5′-monophosphate dehydrogenase (enzyme)	binds	–
L-lactate dehydrogenase (LDH), endogenous (from UniProt Q27743 1-316) (enzyme)	binds	–
Phosphoglycerate mutase (enzyme)	binds	–
Phosphoribosyl pyrophosphate synthetase (enzyme)	binds	–
S-adenosyl-L-homocysteine hydrolase (SAHH), endogenous (from UniProt P50250 1-479) (enzyme)	binds	–
acyl-CoA synthetase (ACS11) (enzyme)	binds	–
asparagine-tRNA ligase (enzyme)	binds	–
dihydropteroate synthetase (DHPS) (enzyme)	binds	–
dolichyl-phosphate-mannose protein mannosyltransferase (enzyme)	binds	–
elongation factor 1-gamma	binds	–
endoplasmin	binds	–
eukaryotic initiation factor	binds	–

Substance	binding [1]	further results
eukaryotic translation initiation factor 2 gamma subunit	binds	–
eukaryotic translation initiation factor 3 subunit 5	binds	–
eukaryotic translation initiation factor 3 subunit 8	binds	–
eukaryotic translation initiation factor 3 subunit 10	binds	–
glutamine-tRNA ligase	binds	–
karyopherin alpha (KARalpha)	binds	–
lysine-tRNA ligase (KRS1) (from UniProt Q8IDJ8 1-583)	–	binding [4]: binds
nascent polypeptide-associated complex alpha chain	binds	–
proteasome regulatory protein	binds	–
protein disulfide isomerase (PDI-11) (enzyme)	binds	–
protein phosphatase 2C (PP2C) (enzyme)	binds	–
purine nucleoside phosphorylase (PNP) (from UniProt Q8I3X4 1-245) (enzyme)	binds	–
serine repeat antigen 5 (SERA5) (from UniProt Q9TY95 23-997)	binds	–
suppressor of kinetochore protein 1	binds	–
translation initiation factor 4E (eIF4E)	binds	–
translation initiation factor IF-2	binds	–
ubiquitin carboxyl-terminal hydrolase	binds	–
ubiquitin carboxyl-terminal hydrolase 2 (enzyme)	binds	–

No constants are given. Whether binding was seen depends on the method and setting. In cells and extracts the contact can be indirect. These calls come from enrichment with a bait or labelling near it, and not all partners need be listed.
